Measured values taken from patent US11214595B2 (UNIVERSITY OF SOUTH FLORIDA, priority 2016, dated 2022).
Positions of bridges follow the written chain, without caps; N, C: chain ends.

Test: peptide made by a vendor
Conditions: whole synthesis, HPLC and MS, TFA salt

## H-CRRGLVQVC-OH (disulfide 1-9; N-terminus and C-terminus assumed; SMILES CC(C)C[C@@H]1NC(=O)CNC(=O)[C@H](CCCNC(=N)N)NC(=O)[C@H](CCCNC(=N)N)NC(=O)[C@@H](N)CSSC[C@@H](C(=O)O)NC(=O)[C@H](C(C)C)NC(=O)[C@H](CCC(N)=O)NC(=O)[C@H](C(C)C)NC1=O)
  final HPLC purity: 98-99%
